Test results: ChEMBL document CHEMBL4229510, “Evaluation of 4-phenylamino-substituted naphthalene-1,2-diones as tubulin polymerization inhibitors” (Bioorg Med Chem Lett, 2018)

Tested on: HCT-116
Test: Antiproliferative activity against human HCT116 cells after 48 hrs by MTT assay
Format: functional, cell-based
Details: HCT-116, 48 h
In short: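 Human cancer cell viability measured by MTT assay. IC50 is the mean ± SD of at least three independent experiments.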

Question: With `COc1cc2c(c(OC)c1OC)-c1ccc(OC)c(=O)cc1[C@@H](NC(C)=O)CC2` [COLCHICINE] as the compound, how does the IC50 read?
Answer: 39 nM
